Source: PubChem BioAssay AID651768 (National Center for Advancing Translational Sciences (NCATS), 2012)
The campaign covered roughly 360,000 compounds. About 1,700 (0.47%) were called active. Inconclusive results, whose numbers are uncertain, are shown with a selection of clear calls. Calls come from the whole dose curve; as a rule, active = well fitted inhibition curve with a large enough effect; inconclusive = small, poorly fitted or top-dose-only effect; inactive = no such curve, though single readings can be large or run the other way. Potencies of inconclusive entries are doubtful fits and often do not repeat.
% is set by controls: 0 for no effect and ±100 for the full control effect; potency is the fitted concentration of half-maximal effect.
Note: nearly all actives have a fitted effect of over 55% in size.

Amino acid sequences for entries named in this document (tags omitted).
UniProt Q14191, whole entry, looked up: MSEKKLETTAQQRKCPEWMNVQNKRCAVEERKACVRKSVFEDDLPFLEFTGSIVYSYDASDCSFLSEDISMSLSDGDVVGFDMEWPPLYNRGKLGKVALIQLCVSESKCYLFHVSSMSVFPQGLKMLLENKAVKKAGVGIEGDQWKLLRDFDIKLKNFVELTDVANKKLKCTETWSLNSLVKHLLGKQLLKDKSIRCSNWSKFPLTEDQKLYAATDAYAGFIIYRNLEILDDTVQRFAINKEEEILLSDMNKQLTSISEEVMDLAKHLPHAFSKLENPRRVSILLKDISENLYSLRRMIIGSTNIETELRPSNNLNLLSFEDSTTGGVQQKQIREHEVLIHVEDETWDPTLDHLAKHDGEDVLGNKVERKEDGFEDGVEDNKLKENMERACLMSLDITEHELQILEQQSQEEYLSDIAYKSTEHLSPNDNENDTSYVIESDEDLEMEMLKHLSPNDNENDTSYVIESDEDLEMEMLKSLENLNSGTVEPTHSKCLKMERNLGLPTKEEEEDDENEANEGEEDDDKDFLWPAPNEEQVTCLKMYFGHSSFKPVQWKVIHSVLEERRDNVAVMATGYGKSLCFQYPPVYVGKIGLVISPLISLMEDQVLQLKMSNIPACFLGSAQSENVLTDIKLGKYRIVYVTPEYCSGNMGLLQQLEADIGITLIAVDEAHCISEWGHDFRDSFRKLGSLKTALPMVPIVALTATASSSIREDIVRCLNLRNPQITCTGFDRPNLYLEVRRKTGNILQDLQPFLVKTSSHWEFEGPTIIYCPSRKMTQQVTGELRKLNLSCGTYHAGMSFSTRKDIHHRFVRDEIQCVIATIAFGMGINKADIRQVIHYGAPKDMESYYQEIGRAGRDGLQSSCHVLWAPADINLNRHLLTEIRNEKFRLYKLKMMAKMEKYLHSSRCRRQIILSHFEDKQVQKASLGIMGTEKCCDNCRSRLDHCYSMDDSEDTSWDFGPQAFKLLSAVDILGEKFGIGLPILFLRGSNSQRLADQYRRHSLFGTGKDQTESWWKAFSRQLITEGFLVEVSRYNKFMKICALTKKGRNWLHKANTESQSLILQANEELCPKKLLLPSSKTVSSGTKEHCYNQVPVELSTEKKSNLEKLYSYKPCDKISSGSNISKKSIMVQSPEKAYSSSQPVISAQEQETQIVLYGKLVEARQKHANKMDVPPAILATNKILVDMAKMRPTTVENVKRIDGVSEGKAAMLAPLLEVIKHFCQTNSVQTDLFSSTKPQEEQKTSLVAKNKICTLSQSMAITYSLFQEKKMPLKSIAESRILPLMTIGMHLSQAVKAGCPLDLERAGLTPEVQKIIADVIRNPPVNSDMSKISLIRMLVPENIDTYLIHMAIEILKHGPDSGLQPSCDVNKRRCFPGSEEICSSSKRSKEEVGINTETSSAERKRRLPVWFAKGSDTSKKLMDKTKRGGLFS

Each compound was assayed against Bifunctional 3'-5' exonuclease/ATP-dependent helicase WRN (Homo sapiens) (UniProt Q14191) (assay: qHTS for Inhibitors of WRN Helicase). Conditions: WRN helicase unwinding, fluorescent forked duplex, kinetic; activity change, negative = inhibition: at 114 µM (top of the series) unless noted.
Description: Inhibition of DNA repair is proposed as a strategy for combating cancer. Synthetic lethality is an approach that exploits preexisting DNA repair deficiencies in certain tumors to develop inhibitors of DNA repair pathways that compensate for the tumor-associated DNA repair deficiency. Because helicases play critical roles in the DNA damage response and in DNA repair, particularly in actively dividing and replicating cells, characterization of synthetic lethal relationships of DNA helicases may be of value in developing improved anticancer treatment strategies; moreover, small molecules that specifically target a given DNA helicase may be useful for understanding its role in cellular nucleic acid metabolism. The goal of this project is to identify small molecule, non-covalent chemical inhibitors of the Werner syndrome (WS) helicase (WRN), which plays an important role in cell proliferation, the replication stress response, and DNA repair. […] The WRN gene product that is defective in the chromosomal instability disorder has DNA helicase and exonuclease activities and interacts with a number of nuclear proteins to maintain genomic stability. We will employ an optimized high-throughput screening assay that utilizes a fluorescence intensity modulation scheme with a fluorophore and quencher positioned near one another within a duplex deoxyoligonucleotide that contains a single forked structure. After a high-throughput screen of the ~350,000-member Molecular Libraries Small Molecule Repository (MLSMR) collection, followed by data analysis and hit selection, a panel of confirmatory, as well as secondary and ternary, assays will be employed to identify high-confidence WRN inhibitors. Structure-activity relationships will be investigated for the top candidate inhibitor series through medchem expansion. These are the results of the primary screening campaign against the MLSMR. NIH Chemical Genomics Center [NCGC] NIH Molecular Libraries Probe Centers Network [MLPCN] MLPCN Grant: MH096530 Assay Submitter (PI): Robert Brosh, National Institute of Aging
Three muL of reagents (buffer in columns 3 and 4 as negative controls; WRN at 20 nM final concentration in columns 1 and 2 as positive controls; columns 5-48 as test reactions) will be dispensed into a 1536-well Greiner black plate via solenoid-valve based nanoliter dispensers. Compounds (23 nL each in columns 5-48) and control (23 nL each in column 2 as dose-response) will be transferred via a Kalypsys pintool equipped with a 1536-pin array. Plates will be incubated for 15 min at room temperature, and then 1 µL of substrate (100 nM forked duplex oligonucleotide and 2 mM ATP final concentrations) will be added to start reaction, and plate will be transferred into a ViewLux high-throughput CCD imager where reaction progress is measured in kinetic mode using standard red-fluorescence optics (excitation filter 525 nm, emission filter 598 nm).
With `O=C(O)c1cccc2c1NC(C(=O)O)C1CC(Sc3ccccc3[N+](=O)[O-])C(Cl)C21` (centres undefined) the Potency was active: 31.6 µM.
For `CCOC(=O)[C@]12Cc3cc(Cl)ccc3[C@H]1N(C1CCCCC1)C(=O)c1ccccc12`, the “activity change, negative = inhibition” value was inactive: -11%.
For `Cc1cccc(N2C(=O)NC(=O)/C(=C\c3cnn(-c4ccccc4)c3)C2=O)c1`, the Potency was active: 50.1 µM.
For `O=C1NC(=O)C(=Cc2ccccc2OCCOc2ccc([N+](=O)[O-])cc2)C(=O)N1`, the Potency was active: 35.5 µM.
For `CCOC(=O)c1c(/N=C/C2C(=O)NC(=S)NC2=O)sc2c1CCC2`, the Potency was active: 56.2 µM.
`O=C(c1cc2nc(-c3ccccc3)cc(-c3ccccc3)n2n1)N1CCC2(CC1)OCCO2` was tested, and the activity change, negative = inhibition was inconclusive: -38.1% [inhibitor] [at 57.1 µM].
In the case of `CCN1CCN(c2ccc(N)cc2C)CC1`, the Potency is reported as inconclusive: 56.2 µM [inhibitor, partial curve].
`CCc1ccccc1N1C(=O)NC(=O)/C(=C\c2cc(C)n(C)c2C)C1=O` was tested, and the “activity change, negative = inhibition” value was inactive: -13.1%.
With `CCCCn1c(O)c(/C=N/NC(=O)c2ccncc2)c(=O)[nH]c1=S` the Potency was active: 31.6 µM.
For `Nc1c(C(=O)NCc2ccco2)c2nc3ccccc3nc2n1Cc1ccc(F)cc1`, the Potency was inconclusive: 50.1 µM [inhibitor, partial curve].
`O=C(Nc1ccc(Cl)cc1C(=O)c1ccccc1)c1ccccc1` was tested, and the “activity change, negative = inhibition” value was inactive: -27.7%.
For `O=c1[nH]c(=S)n(-c2ccccc2)c(O)c1/C=N/N1CCCCC1c1cccnc1` (centres undefined), the Potency was active: 79.4 µM.
For `COCCCNC(=O)c1c(NC(=O)c2ccco2)n(Cc2ccccc2)c2nc3ccccc3nc12`, the Potency was inconclusive: 79.4 µM [inhibitor, partial curve].
With `O=C1NC(=O)N(CCc2ccc(F)cc2)C(=O)/C1=C/c1cccs1` the Potency was active: 31.6 µM.
`CCN1CCC2(CC1)NC(CO)(CO)CO2` was tested, and the “activity change, negative = inhibition” value was inactive: -5.53%.
For `[O-]/[N+](=C/c1cccnc1)c1ccc(Br)cc1`, the Potency was inconclusive: 56.2 µM [inhibitor, partial curve].
In the case of `CCc1ccc(NC(=O)C(C)OC(=O)c2c(C)nn(Cc3ccccc3)c2Cl)cc1` (centres undefined), the Potency is reported as inconclusive: 39.8 µM [inhibitor, single point].
`Cc1cccc(N2C(=O)NC(=O)/C(=C\c3cccn3-c3ccc(Cl)cc3)C2=O)c1` was tested, and the Potency was inconclusive: 50.1 µM [inhibitor, partial curve].
In the case of `O=C1NC(=O)N(Cc2ccc(F)cc2)C(=O)/C1=C/c1cccs1`, the Potency is reported as active: 39.8 µM.
With `N#CC1=C(N)Oc2c(c(=O)sc3ccccc23)C1c1ccncc1` (centres undefined) the “activity change, negative = inhibition” value was inactive: 1.62%.
For `CCCCn1c(NC(=O)c2ccc(Br)o2)c(C(=O)OCC)c2nc3ccccc3nc21`, the Potency was inconclusive: 14.1 µM [inhibitor, single point].
`N#Cc1c(/N=C/c2ccc(O)cc2O)sc2c1C1CCN2CC1` was tested, and the Potency was inconclusive: 89.1 µM [inhibitor, partial curve, poor fit].
With `c1cncc(CNCCN2CCNCC2)c1` the Potency was inconclusive: 22.4 µM [inhibitor, single point].
With `Cn1c(=O)c2c(nc(N/N=C/c3c(O)n(C4CCCCC4)c(=S)[nH]c3=O)n2C)n(C)c1=O` the Potency was inconclusive: 7.08 µM [inhibitor, full curve, poor fit].
For `Cc1cc(C=C2C(=O)NC(=S)NC2=O)c(C)n1-c1ccc2c(c1)OCO2`, the Potency was inconclusive: 56.2 µM [inhibitor, partial curve].
With `O=C(c1ccccc1NS(=O)(=O)c1ccc(Br)cc1)N1CCOCC1` the Potency was inconclusive: 79.4 µM [inhibitor, single point].
In the case of `C=CCN1C(=O)NC(=O)/C(=C\c2ccc(-c3ccccc3[N+](=O)[O-])o2)C1=O`, the Potency is reported as inconclusive: 25.1 µM [inhibitor, single point].
For `O=C(Nc1ccc(Cl)c(Cl)c1)c1ccco1`, the “activity change, negative = inhibition” value was inactive: -24.6%.
`CCOC(=O)c1ccc(N=C(CC)c2c(O)n(C)c(=O)n(C)c2=O)cc1` was tested, and the Potency was inconclusive: 6.31 µM [inhibitor, full curve, poor fit].
With `CCOc1ccc(N2C(=O)NC(=O)/C(=C/c3cnc(SC)nc3)C2=O)cc1` the Potency was inconclusive: 56.2 µM [inhibitor, partial curve].
For `O=C1NC(=O)N(Cc2ccccc2)C(=O)C1Cc1ccccc1` (centres undefined), the Potency was inconclusive: 25.1 µM [inhibitor, partial curve].
For `CCOC(=O)COc1ccc(/C=C2\C(=O)NC(=S)N(c3ccc(OC)cc3)C2=O)cc1OC`, the “activity change, negative = inhibition” value was inactive: -4.19%.
With `O=C1NC(=S)NC(=O)C1=Cc1c(Cl)cccc1Cl` the Potency was active: 56.2 µM.
In the case of `O=C(N/N=C/c1c(O)n(Cc2ccccc2)c(=O)[nH]c1=O)c1ccncc1`, the Potency is reported as inconclusive: 25.1 µM [inhibitor, single point].
With `N#CC(C#N)=Cc1ccc(C=C(C#N)C#N)cc1` the Potency was inconclusive: 50.1 µM [inhibitor, partial curve].
`Nc1c(C(=O)NCCN2CCOCC2)c2nc3ccccc3nc2n1Cc1ccccc1` was tested, and the “activity change, negative = inhibition” value was inactive: 5.83%.
`C#CCOCCOCCOCCNc1nc(N2CCN(C(=O)CCCCCCCCCCNC(=O)[C@H]([C@@H](C)CC)n3cc(CCCCN=C(N)N)nn3)CC2)nc(N2CCN(C(=O)CCCCCCCCCCNC(=O)[C@H](CO)n3cc(CCCCCN)nn3)CC2)n1` was tested, and the Potency was active: 22.4 µM.
In the case of `CC(C)C(C)(NC(=O)c1cccn(Cc2ccc3c(c2)OC(F)(F)O3)c1=O)C(N)=O` (centres undefined), the “activity change, negative = inhibition” value is reported as inactive: -1.01%.
`Cc1ccc[n+](CC(O)Cn2c3ccccc3c3ccccc32)c1` (centres undefined) was tested, and the Potency was inconclusive: 31.6 µM [inhibitor, single point].
In the case of `O=Cc1cn(Cc2ccc(Br)cc2)c2ccccc12`, the “activity change, negative = inhibition” value is reported as inactive: 2.25%.
`Cc1ccc(N2C(=O)NC(=O)/C(=C\c3cnc(-c4ccccc4)nc3)C2=O)cc1` was tested, and the Potency was inconclusive: 31.6 µM [inhibitor, single point].
In the case of `O=C1NC(=S)NC(=O)C1=Cc1cccn1-c1ccc(O)cc1`, the Potency is reported as active: 44.7 µM.
In the case of `C=C1C(=O)O[C@@H]2C[C@@H](C)[C@@H]3C=CC(=O)[C@@]3(C)[C@@H](OC(=O)CC(=O)O[C@H]3[C@@H]4C(=C)C(=O)O[C@@H]4C[C@@H](C)[C@@H]4C=CC(=O)[C@]43C)[C@H]12`, the Potency is reported as active: 44.7 µM.
For `NC(N)=N/N=C/c1ccc(N(c2ccccc2)c2ccccc2)cc1`, the Potency was inconclusive: 79.4 µM [inhibitor, partial curve].
For `Cc1c(C=C2C(=O)N(C)C(=S)N(C)C2=O)c2ccccc2n1CC(=O)NCC1CCCO1` (centres undefined), the Potency was inconclusive: 89.1 µM [inhibitor, partial curve, poor fit].
In the case of `CN(C)c1ccc(C=C2C(=O)NC(=S)NC2=O)cc1`, the Potency is reported as active: 35.5 µM.
In the case of `Cc1ccc(S(=O)(=O)Oc2ccccc2C=C2C(=O)N(C)C(=O)N(C)C2=O)cc1`, the Potency is reported as active: 44.7 µM.
With `Cc1cccc(NC(=O)Cn2cc(C(=O)C3CC3)c3ccccc32)c1C` the Potency was inconclusive: 89.1 µM [inhibitor, single point].
With `Cc1ccc(OCCOc2cccc(C=C3C(=O)NC(=O)NC3=O)c2)c(C)c1` the Potency was active: 35.5 µM.
With `ClCCNc1nc2ccc(Cl)cc2[nH]1` the “activity change, negative = inhibition” value was inactive: -6.85%.
With `COc1ccc(OC)c(N2C(=O)/C(=C/c3ccco3)C(=O)NC2=S)c1` the Potency was active: 3.16 µM.
`CC(C)N1C(=O)/C(=C/C=C/c2ccco2)C(=O)N(Cc2ccco2)C1=O` was tested, and the Potency was active: 35.5 µM.
In the case of `O=c1c2ccccc2nc(/C=C/c2cccnc2)n1Cc1ccccc1`, the Potency is reported as active: 31.6 µM.
With `O=C1NC(=S)NC(=O)C1=Cc1ccc2c(c1)CCN2CCCCl` the Potency was active: 56.2 µM.
For `CC1=CC(c2ccccc2)NC(=S)N1` (centres undefined), the Potency was inconclusive: 70.8 µM [inhibitor, single point].
In the case of `O=c1c2ccccc2nc(-c2ccco2)n1-c1ccc(Br)cc1`, the “activity change, negative = inhibition” value is reported as inactive: -4.67%.
In the case of `COc1cc(C=C2C(=O)NC(=O)NC2=O)ccc1OCc1ccc([N+](=O)[O-])cc1`, the Potency is reported as active: 44.7 µM.
`Cc1cccc(N2C(=O)NC(=O)/C(=C\c3cnc(-c4ccccc4)nc3)C2=O)c1` was tested, and the Potency was inconclusive: 56.2 µM [inhibitor, partial curve].
In the case of `O=C1NC(=S)NC(=O)C1=Cc1ccc(OCc2ccccc2)cc1`, the Potency is reported as active: 35.5 µM.
`CCOc1cc(/C=C2/C(=O)NC(=O)N(c3ccc(CC)cc3)C2=O)ccc1OC(=O)c1cccs1` was tested, and the Potency was active: 50.1 µM.
For `Cc1cc(/C=C2\C(=O)NC(=O)N(Cc3ccco3)C2=O)c(C)n1-c1ccc(O)cc1`, the Potency was inconclusive: 56.2 µM [inhibitor, partial curve].
`COc1ccc(N2C(=O)/C(=C/c3ccc(C)o3)C(=O)NC2=S)cc1` was tested, and the Potency was inconclusive: 50.1 µM [inhibitor, partial curve].
With `CNC(=O)c1cccn(Cc2cccc(C(F)(F)F)c2)c1=O` the “activity change, negative = inhibition” value was inactive: 12.9%.
For `Cc1ccc(-c2nc(N3CCOCC3)s[n+]2-c2ccccc2)cc1`, the Potency was inconclusive: 44.7 µM [inhibitor, partial curve].
`COc1ccc(-n2c(-c3ccccc3[N+](=O)[O-])nc3ccccc3c2=O)cc1` was tested, and the Potency was inconclusive: 89.1 µM [inhibitor, single point].
In the case of `COc1ccc(N2C(=O)NC(=O)/C(=C/c3ccc([N+](=O)[O-])s3)C2=O)cc1`, the Potency is reported as active: 50.1 µM.
In the case of `Cc1cccc(-n2c(C)nc3ccc(Cl)cc3c2=O)c1`, the “activity change, negative = inhibition” value is reported as inactive: -24.1%.
`CC(C)(C)c1ccc(/C=C2\Oc3cc(OC(=O)N4CCOCC4)ccc3C2=O)cc1` was tested, and the Potency was inconclusive: 44.7 µM [inhibitor, partial curve].
With `C=C1C(=O)O[C@H]2[C@H]1[C@H](OC(=O)CC(=O)O[C@@H]1C[C@@H](C)[C@@H]3C=CC(=O)[C@@]3(C)[C@H]3OC(=O)C(=C)[C@H]13)C[C@@H](C)[C@H]1C=CC(=O)[C@]12C` the Potency was inconclusive: 50.1 µM [inhibitor, partial curve].
